Assay results taken from paper PMC4598174.

Assays:
[1] = biological target: T1, AtTTG1 (Arabidopsis) (UniProt Q9XGN1); experiment: two-hybrid; Matchmaker Gold Y2H System (Clontech); pGADT7 (AD) SsMYB3 fusion co-transformed with pGBKT7 (BD) fusions into S. cerevisiae Y2HGold; selection on SD-Leu-Trp, then growth on SD-Ade-His-Leu-Trp
T1 sequence: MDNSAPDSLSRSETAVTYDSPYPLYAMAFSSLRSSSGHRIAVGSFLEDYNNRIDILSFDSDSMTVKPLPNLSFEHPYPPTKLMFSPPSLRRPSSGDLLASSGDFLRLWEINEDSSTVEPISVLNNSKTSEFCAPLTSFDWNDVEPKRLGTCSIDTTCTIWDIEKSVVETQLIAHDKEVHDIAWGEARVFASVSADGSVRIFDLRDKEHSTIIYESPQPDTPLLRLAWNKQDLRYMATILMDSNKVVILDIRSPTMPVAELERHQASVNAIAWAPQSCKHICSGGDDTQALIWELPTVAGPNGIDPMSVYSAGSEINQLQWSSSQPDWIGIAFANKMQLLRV

[2] = biological target: T2, AtTT8 MYB-interaction region (aa1-204) (Arabidopsis) (UniProt Q9FT81); experiment: as above
T2 sequence: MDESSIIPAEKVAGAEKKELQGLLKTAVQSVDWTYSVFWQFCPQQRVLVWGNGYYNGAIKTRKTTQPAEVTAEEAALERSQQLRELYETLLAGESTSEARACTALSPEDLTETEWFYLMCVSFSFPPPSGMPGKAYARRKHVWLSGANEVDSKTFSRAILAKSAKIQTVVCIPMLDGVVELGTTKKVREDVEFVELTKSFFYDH

SsMYB3 (from UniProt A5A383)
binding [1]: binds
binding [2]: binds

Results are given in words; binding and its absence hold for the method and conditions named. Binding can be weak; no strength is given.
